Reference: PMC12040169 (PLOS Biology, 2025)
Some of the results follow.

What follows are compounds tested on T1, CTL2-GFP (C. trachomatis L2/434/Bu, GFP-expressing). Details: bulk GFP, single well; 28.5 h, 10 µM; inhibitor.
T1 construct: L2/434/Bu, GFP-expressing
Parameters: species or system HeLa; Intracellular C. trachomatis growth in HeLa cells, bulk GFP fluorescence relative to DMSO

Structure (SMILES) | % of control remaining [%]
O=C1NCC2(CCN(C(=O)C3CC3)CC2)Oc2ccccc21 [CBK282918] | 114.613
CC(C)C(=O)N1CC2(CCN(CCS(=O)(=O)c3ccccc3)CC2)c2ccccc21 [CBK126726] | 86.78
COCCNc1cc(-c2ccco2)ncn1 [CBK090796] | 141.382
COc1ccc(-c2nc(-c3ccncc3)ncc2C(=O)NC2CCCCC2)cc1 [CBK291111] | 141.482
O=C(NC(=S)Nc1cccc(Cl)c1)c1cncc(Br)c1 [CBK264618] | 116.409
CC(C)NC(=O)N1CCN2C(=O)c3cc(-c4ccc(Cl)cc4)ccc3NC(=O)[C@H]2C1 [CBK289596] | 118.274
CC(C)S(=O)(=O)n1ccn(-c2ccc(N(C)C)cc2)c1=O [CBK106600] | 124.981
FC(F)(F)c1cccnc1Sc1nc[nH]n1 [CBK115213] | 97.6116
CCc1cc(Br)ccc1S(=O)(=O)NCCc1cccs1 [CBK045033] | 76.1247
O=C(Cn1cccc2cc(C3CCCNC3)nc1-2)N1CCCC1 (stereo not drawn) [CBK285086] | 125.937
CSc1nsc(SCC(=O)OC2CC3CCC2(C)C3(C)C)n1 (stereo not drawn) [CBK268941] | 137.201
CCOc1ccc(C(=O)C2=C(O)C(=O)N(CCN(C)C)C2c2ccc(N(C)C)cc2)c(C)c1 (stereo not drawn) [CBK264603] | 126.221
CCN1CCC2(CC1)NC(=O)Cc1cc(OC)c(OC)c(OC)c12 [CBK039868] | 110.696
CN(CCO)C(=O)CCn1c(C(F)F)cc2cccnc21 [CBK282805] | 126.15
CC(=O)NCC1CN(c2ccc3c(c2)CCN3C(=O)OC(C)(C)C)C(=O)O1 (stereo not drawn) [CBK012600] | 158.959
CN(C(=O)C1CCN(S(=O)(=O)c2cn(C)cn2)CC1)C(c1ccc(F)cc1)c1ccccn1 (stereo not drawn) [CBK060229] | 162.653
O=C(Nc1cccc2cccnc12)c1ccc(Cl)c(Cl)c1 [CBK261318] | 122.132
COC(=O)COc1ccc(C2Nc3c(Cl)ccc(C(=O)O)c3C3C=CCC32)cc1 (stereo not drawn) [CBK268961] | 108.069
COC(=O)C1=C(C(=O)OC)SC(=C2C(=S)C(C)(C)N(C(=O)c3ccc4ccccc4c3)c3cc(C)ccc32)S1 [CBK261622] | 93.8491
COC(=O)c1ccc(S(=O)(=O)C(F)(F)F)cc1N [CBK018172] | 107.871
CCN(CC)C(=O)c1[nH]c2ccccc2c1NS(=O)(=O)c1cc(Br)ccc1OC [CBK050113] | 141.848
O=C(COc1ccccc1)N1CCC(c2cccc(Cc3ccccc3F)n2)CC1 [CBK286211] | 105.892
CCC(NC(=O)Nc1cc(N2CCOCC2)ccc1Cl)c1nc(C)no1 (stereo not drawn) [CBK306526] | 118.442
O=C(CCCN1C(=O)c2ccccc2C1=O)Oc1ccc(-c2ccccc2)cc1 [CBK267144] | 153.709
Cn1nccc1NS(=O)(=O)c1cc(C(=O)O)c(Cl)cc1F [CBK062712] | 87.3371
Cc1csc2c(N3CCCC3CC(=O)c3cnn(C)c3)ncnc12 (stereo not drawn) [CBK304429] | 102.465

Some of the entries above in another layout:
CCC(NC(=O)Nc1cc(N2CCOCC2)ccc1Cl)c1nc(C)no1 (stereo not drawn) [CBK306526]
  % of control remaining [%]: 118.442
O=C(CCCN1C(=O)c2ccccc2C1=O)Oc1ccc(-c2ccccc2)cc1 [CBK267144]
  % of control remaining [%]: 153.709
Cn1nccc1NS(=O)(=O)c1cc(C(=O)O)c(Cl)cc1F [CBK062712]
  % of control remaining [%]: 87.3371

Next compounds.

Structure (SMILES) | % of control remaining [%]
O=C1CC(=O)N(Cc2ccc(F)cc2)C(=O)N1 [CBK291156] | 146.921
Cc1cccn2cc(CNC(=O)C(C)(C)C)nc12 [CBK304348] | 154.933
COc1ccc(-c2cc(N3CCCN(C)CC3)n3nccc3n2)cc1 [CBK037244] | 110.242
C[C@H](NC(=O)N1CCC(c2nc(-c3ccccc3)c3ccccn23)CC1)c1ccccc1 [CBK047086] | 125.599
Cc1ncc([N+](=O)[O-])n1CC(=O)Nc1ccccc1F [CBK269335] | 142.288
CN1CCOc2cc(S(=O)(=O)Nc3cccnc3N3CCOCC3)ccc21 [CBK062299] | 104.785
Cc1cccc(CN2CCC(NC(=O)Cn3cnnn3)CC2)c1 [CBK305649] | 121.406
COc1ccc(F)c(CN(CC(C)(C)CN)C(=O)Nc2c(F)cccc2F)c1 [CBK002405C] | 126.698
c1ccc(CCCN2CCN(Cc3cccc4ccccc34)CC2)cc1 [CBK264237] | 132.19
CN(C)c1ccc(-c2cnc3[nH]c(=O)n(C4CCCC4)c3n2)cc1 [CBK064964] | 122.952
O=C(Nc1ccccc1)c1cccc(S(=O)(=O)NCc2ccncc2)c1 [CBK269980] | 77.891
Cc1nc2ccc(C(=O)O)cc2c2c1CC(CN)O2 (stereo not drawn) [CBK286974] | 124.851
c1ccc2c(c1)CCCN2c1ncnc2n[nH]cc12 [CBK287886] | 106.246
C[C@H]1[C@@H]2[C@@H](O)C([C@H](C)C(=O)N3CCCCC3)CC[C@@]2(C)CC[C@@H]1NC(=O)c1cnccn1 (stereo partly drawn) [CBK289448] | 104.481
CN1C(=O)CC2(C1=O)C(=O)N(Cc1nc(-c3ccc(Cl)cc3)no1)c1ccc(F)cc12 (stereo not drawn) [CBK075442] | 122.137
O=C(c1ccc(O)nc1)N1CCN(Cc2cc(=O)n3ccsc3n2)CC1 [CBK306098] | 102.421
COc1ccccc1N1C(=O)CC(SC(=N)N/N=C(\C)c2ccc(O)cc2)C1=O (stereo not drawn) [CBK262766] | 107.5
COc1cc(CNC(=O)NC(=O)C2CCN(CCCc3ccc(Cl)c(Cl)c3)CC2)cc(OC)c1OC [CBK034858] | 165.446
NS(=O)(=O)c1ccc(NC(=O)CCCOc2ccc(Cl)cc2Cl)cc1 [CBK261536] | 100
O=C(CSc1nc(=O)cc(O)[nH]1)N1CCc2ccccc21 [CBK269350] | 178.515
CCCn1c(SCC(=O)NCc2ccc(OC)cc2)n[nH]c1=O [CBK297549] | 148.323
c1ccc2c(-c3cn4ccnc4c(Nc4ccc5cn[nH]c5c4)n3)cccc2c1 [CBK066346] | 133.509
CN1CCN(c2cc(CNC(=O)c3cc(O)nc4ccccc34)ccn2)CC1 [CBK279658] | 141.561
COc1cc([N+](=O)[O-])ccc1NC(=O)CN(C)S(=O)(=O)c1ccc2ccccc2c1 [CBK267387] | 106.424
Cc1cccc(Cc2cccc(C3CCCN(S(=O)(=O)c4cn(C)nc4C)C3)n2)c1 (stereo not drawn) [CBK286131] | 93.1703
O=C(O)c1sccc1S(=O)(=O)Nc1ccc(Cc2nc3ccccc3s2)cc1 [CBK295286] | 145.865

Structure (SMILES) | % of control remaining [%]
c1cncc(-c2ncc(-c3ccco3)c(-c3ccco3)n2)c1 [CBK284503] | 96.7886
O=C(Nc1cccc2[nH]ccc12)c1cccc(F)c1Cl [CBK159638] | 121.11
CC(=O)Nc1ccc(CN(C)c2c(C)nc3c(OCC4CCCCC4)cccn23)cc1 [CBK147379] | 101.79
CNc1cc(N2CCN(S(=O)(=O)N(C)C)CC2)ccc1[N+](=O)[O-] [CBK269311] | 143.288
Cc1ccc(-c2csc(NC(=O)CS(=O)(=O)c3ccccc3)n2)cc1 [CBK287707] | 84.2124
Cc1ccc(NC(=O)C2CCCN2S(=O)(=O)c2ccc(F)cc2)cc1F (stereo not drawn) [CBK110164] | 61.1736
O=C(O)CSC1c2ccccc2Oc2ccc(F)cc21 (stereo not drawn) [CBK266462] | 125.466
O=C(O)CN1CCC(Oc2nccnc2OCc2ccc(Cl)c(Cl)c2)CC1 [CBK144443] | 114.851
Cc1cc(Br)ccc1NC(=O)C(=O)NC1CC1 [CBK269284] | 143.589
Cc1cc(C)c(-n2cccn2)c(CN2CCC(CO)C2)c1 (stereo not drawn) [CBK282915] | 121.621
COc1c(C)cc(Br)cc1C(=O)NC(=S)Nc1ccccc1N1CCN(C)CC1 [CBK267855C] | 103.784
CN(CCOc1ccccc1)c1nccnc1N1CCNCC1 [CBK000035F] | 133.102
Cc1cc(NS(=O)(=O)c2ccc(OCCNS(C)(=O)=O)cc2)no1 [CBK268530] | 167.736
C[C@@H]1CN(c2ccc(C(F)(F)F)c(OCc3ccccc3)n2)CCN1 [CBK003987A] | 22.0675
COc1ccc([C@@]23CC[C@@H](NC(=O)Nc4ccon4)C[C@@H]2N(C)CC3)cc1OC [CBK051069T] | 71.3899
COCCN(Cc1cc2ccc(C)cc2nc1O)S(=O)(=O)c1ccccc1 [CBK269216] | 138.161
Cc1n[nH]c(C)c1CNC(=O)C1CCN(Cc2ccc(F)cc2)CC1 [CBK282502] | 117.687
c1csc(-c2nnc(C3CCN(Cc4ccsc4)CC3)o2)c1 [CBK285309] | 135.257
COc1ccc2c(c1)C1(CC(=O)N(CCC3CCCCC3)C1=O)C(=O)N2C (stereo not drawn) [CBK075147] | 80.7652
CCC(=O)Nc1nc2ccccc2n1CCCN(C)C [CBK263492] | 123.793
CC(O)c1ccc(-c2ccc(CNCCCN3CCOCC3)o2)cc1 (stereo not drawn) [CBK278178C] | 145.662
CCC1(C)CCCN(Cc2nnnn2-c2ccc(S(C)(=O)=O)cc2)C1 (stereo not drawn) [CBK306180] | 101.341
O=C(O)C12CC3CC(C(=O)O)(C1)CC(C(=O)O)(C3)C2 [CBK263442] | 100
Cc1nc(COc2ccccc2)sc1C(=O)N1CCC(C(N)=O)CC1 [CBK202603] | 94.2863
NCC1CCCN1C(=O)c1ccc(Oc2cccc(Br)c2)nc1 (stereo not drawn) [CBK304200] | 57.1898
O=C(Nc1nc2nccc(-c3ccccc3)n2n1)c1cccc([N+](=O)[O-])c1 [CBK265414] | 122.111
